Assay results as given in the supplement of paper PMC3334620.
In all, about 33,000 sequences were measured (“E-score (-0.5 to 0.5)”: median about -0.0059, highest 2% from about 0.26 on). The list shows a part of the results.

molecular target: T1, Cin5 (UniProt P40917); assay: PBM E-score (8-mer binding enrichment) (E-score (-0.5 to 0.5)); higher = stronger / more preferred TF binding; conditions: protein concentration: 100 nM; construct: GST-full length
T1 sequence: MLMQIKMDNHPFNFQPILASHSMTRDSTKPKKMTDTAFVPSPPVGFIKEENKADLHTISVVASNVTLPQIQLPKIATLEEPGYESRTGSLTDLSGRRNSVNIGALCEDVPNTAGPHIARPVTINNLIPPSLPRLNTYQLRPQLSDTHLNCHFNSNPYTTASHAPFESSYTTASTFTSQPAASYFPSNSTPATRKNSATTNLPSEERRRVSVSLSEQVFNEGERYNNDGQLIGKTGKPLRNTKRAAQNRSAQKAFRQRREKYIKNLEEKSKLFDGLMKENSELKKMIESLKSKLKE
Procedure, shortened: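 Yeast transcription factors carrying a GST tag, as full-length proteins or DNA-binding domains, were produced by PURExpress in vitro transcription/translation. About 100-200 nM protein was applied to universal all-10-mer Agilent arrays, double-stranded by primer extension on fresh or once-stripped slides. Bound protein was detected with fluorescent anti-GST, and scans were normalised with masliner. The Universal PBM Analysis Suite gave each ungapped eight-base word, pooled with its reverse complement, an E-score, a modified Wilcoxon-Mann-Whitney statistic.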

Sequence | PBM E-score
AGAAGAAT | -0.015
ACGTGGCA | -0.232
CCGCCTCG | -0.095
AGGTTGTA | 0.143
ACCCACGG | -0.252
CGGGCTTC | -0.242
ACAGGAAC | 0.0154
TTCATAAA | 0.0384
GGCGACGA | -0.143
AAATGCGA | 0.0734
ATCTCGGA | 0.0536
GACTTATA | 0.209
GCATTGTA | 0.0783
AGTGTCGA | -0.175
CAATTGTC | 0.119
ACACTACG | 0.0298
CGACGACA | -0.0882
AGGAGTCA | -0.0658
ACCACGGC | -0.136
CGTTCGAG | 0.0512
GGAAGAAC | 0.148
AATGTCGA | 0.16
ACACCCCA | -0.0685
CAACAGTG | 0.0305
ACTATGAG | 0.0206

Quoted from the listing.
Value for CCGCCTCG under PBM E-score: -0.095
Value for ACAGGAAC under PBM E-score: 0.0154
Value for AGGTTGTA under PBM E-score: 0.143
Value for TTCATAAA under PBM E-score: 0.0384

(cont.)

Sequence | PBM E-score
CGATTGAG | -0.047
GAATTATA | 0.101
CTACTACA | 0.173
ACGACTAC | -0.0961
GCTGTGAC | -0.151
TCTGTTCA | 0.135
CTATAGGA | -0.133
ATCCTCCA | -0.0549
GGAAAGAC | -0.209
AGTCCAAG | -0.144
TCTATTAA | 0.109
ATAAAAGG | -0.158
GAAATTTA | 0.0219
GCGACCTA | -0.0518
AGGACAAC | -0.126
CCTAAGCG | -0.0324
GCTGGTGA | 0.0963
GCAATACC | 0.0147
CACGAAAC | 0.0711
GGCAAAAC | -0.0991
CCGTGCCA | -0.178
CCGACGCG | -0.0277
TAGCAGCA | -0.131
ACATGCTC | -0.0236
ATATAAGC | 0.24

Sequence | PBM E-score
TAATGGGA | -0.037
CCTCCAAC | 0.01
CACAGAAG | -0.0708
ACGATATA | -0.00476
TCATCCGA | 0.15
CAAGGAGA | -0.25
AAAACGAT | 0.18
AGCGACAT | 0.0843
CCGAACCG | -0.189
ATTATACA | 0.123
ACGCTCGG | 0.0146
AACGCCCT | -0.221
CGGAGGAG | -0.182
CAACAGCG | -0.0893
CAAATCGC | -0.175
GAGGGACC | -0.31
CTTAAGTC | -0.00578
GGGGCCAC | -0.282
GCCGGCAC | 0.106
GGATGCAC | -0.103
AGTTGGTC | 0.0229
ATTCGAAA | 0.226
ACATATAA | 0.237
GTTAGCCA | -0.00576
AACTACGT | 0.0155

Looked up one by one from the list above (2):
Sequence | PBM E-score
CGGAGGAG | -0.182
ATTCGAAA | 0.226

(further entries)

Sequence | PBM E-score
ATTACAGG | 0.244
ATGACAGA | 0.0914
ACGTAACA | 0.214
ATCTAAGA | 0.0536
GGACCGAA | 0.0361
ACGGCCGT | 0.107
AAGGGAAC | -0.247
ATGTGTGC | -0.0763
CTTGCGGA | -0.128
TAGTGCAA | 0.172
CATAACGA | 0.0898
CGCAATAA | 0.221
GTGGTAAC | -0.0191
AGCGCTTG | 0.027
CGTCAAAA | 0.122
ATATGGAA | 0.0442
CATAGTCG | 0.0574
CTGGTAGC | -0.111
ACCCTCCG | -0.154
CGTATTGA | 0.0973
AAGAATGC | 0.131
ACCGGACG | -0.00878
ATATCTTG | 0.074
GGGCACTA | -0.122
ACTATAAA | 0.146

Sequence | PBM E-score
AATCGACG | 0.00891
AACAACAG | -0.126
CAAGGACA | -0.148
AATCTCGT | 0.0924
CCTCACAA | 0.00087
TAAAAATA | 0.152
ATGAAGTA | 0.2
AGTTCAGC | -0.169
GTCGTCAA | -0.0649
CGATTGGA | 0.0246
GAATATAC | 0.195
AGAGTGTC | 0.146
CAGGTCCC | -0.187
AGCACATG | 0.166
GTATAGTA | 0.169
ATATGCAT | 0.00063
CTCAAAGA | -0.114
ACAGAAAG | 0.102
CTTAATAA | 0.267
GAGACAAA | -0.148
AACAGTGC | 0.00204
CACGAGTG | -0.186
GAAATAAC | 0.128
ACCTTTAC | 0.0225
GGCGGTGA | -0.0013

Sequence | PBM E-score
TATCAACA | 0.108
CGCGCCCA | 0.166
TAACTTAA | 0.189
GCAGTCGA | -0.0448
ACGGCTAA | 0.192
AGAGTAAG | 0.154
CCGTGCAA | -0.114
GGATGACC | 0.00035
AACACTAT | 0.23
AGTGTCAC | -0.0637
CTGCTGAA | -0.212
AGGGGTCG | -0.128
CTGTCGTC | -0.0636
GACCAGCC | -0.159
AGCAGCAC | -0.124
TACAACTA | 0.199
ATGAAACA | 0.104
ACGTGACA | 0.0501
ACTGGACA | -0.118
ACTACTCT | -0.0197
GACCGAGC | -0.253
AGCGTCTA | -0.0994
GTCCGTCA | 0.0752
ACACCGAA | 0.107
AGAAACCT | 0.0967

Sequence | PBM E-score
CAGCGTTC | -0.00468
GCATGGAA | 0.0398
AATGTATA | 0.243
GCTTTATA | -0.0287
GACCGACA | -0.00742
GCAATAAC | 0.178
ATAGTATA | 0.215
AATCGTAC | 0.138
AATAGGAC | 0.133
AAAATGGA | 0.29
CAGTCAGC | -0.0612
CTTCAAAA | 0.0157
CATGTACG | 0.165
ACTCAATA | 0.241
GAATCGAA | 0.152
GAGGACGA | 0.0726
ACACCTCG | 0.0498
ATTGCACG | 0.0324
CTCCCTGC | -0.271
CTCAGTTA | 0.00048
CCGGTAGC | -0.218
AATTAGTA | 0.308
